In PubChem BioAssay AID2685 (National Center for Advancing Translational Sciences (NCATS), 2010):
The other results are listed elsewhere or left out. The main result of the screen is listed elsewhere. These columns were measured beside it and carry no call. Most of these compounds were active or inconclusive in the main read-out, so they are no random draw. The note in brackets gives the kind of curve behind each potency; many fits are weak.

Test: qHTS Assay for Lipid Storage Modulators in Drosophila S3 Cells;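 for cell number change: cells counted by Cell Tracker Red CMTPX staining in the red channel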
Conditions: BODIPY lipid droplet fluorescence, 18-24 h; for cell number change: measured here: cell count max response, cells fed with added oleic acid
In short: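 Drosophila S3 cells got compounds at several concentrations plus oleic acid (400 uM solution). Laser-scanning cytometry with 488 nm excitation read lipid droplets at 500-530 nm and cells at 575-640 nm. Percent activity was relative to 20 uM Triacsin C.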

[1] = measured here: cell number channel AC50, cells fed with added oleic acid
[2] = measured here: lipid fluorescence (Fed channel) AC50, cells fed with added oleic acid

Row | Compound | cell number change | AC50 [1] | AC50 [2]
1 | CCOc1ccc(N(Cc2cc3ccc(C)cc3[nH]c2=O)S(C)(=O)=O)cc1 | 0.62% | 1.64 µM [rising, partial curve] | –
2 | CN(C)C(CNC(=O)Nc1cccc(Cl)c1)c1cccnc1 (configuration not stated) | – | – | 0.651 µM [rising, single point]
3 | Cc1cc(SCc2ccc(Cl)c(Cl)c2)nc(=O)[nH]1 | 29.7% | – | 6.51 µM [falling, single point]
4 | Cc1cc(SCC(=O)NC2CCCCC2)nc2ccccc12 | -2.25% | – | 0.58 µM [rising, single point]
5 | O=C(CNCc1cccs1)Nc1ccc(OC(F)(F)F)cc1 | -44.8% | 18.4 µM [falling, single point] | 29.1 µM [falling, single point]
6 | CCCc1c2ccccc2nc2ccccc12 | -0.485% | – | 6.51 µM [rising, single point]
7 | COc1ccc(S(=O)(=O)N2CCCCCC2)cc1C(=O)NC1(C)CCS(=O)(=O)C1 (configuration not stated) | 1.05% | – | 0.164 µM [rising, full curve, poor fit]
8 | Cc1cc(N2CCOCC2)nc(N)n1 | 7.13% | – | 0.116 µM [falling, full curve, poor fit]
9 | CNc1snc(C)c1C(=O)OCC(=O)c1ccc(OC)c(F)c1 | -2.15% | – | 29.1 µM [falling, partial curve, poor fit]
10 | COc1cccc(NC(=O)C(C#N)Cc2ccncc2)c1 (configuration not stated) | -4.14% | – | 0.92 µM [falling, full curve, poor fit]
11 | O=C(C[n+]1ccsc1)c1ccccc1 | -8.61% | 0.00461 µM [falling, full curve, poor fit] | 0.651 µM [falling, full curve, poor fit]
12 | Clc1ccc(SCCCCN2CCOCC2)cc1 | -31.6% | 0.164 µM [falling, full curve, poor fit] | –
13 | Cc1cc(C)n(C(=O)CNC(=O)c2cccs2)n1 | 1.73% | – | 3.66 µM [falling, single point]
14 | CCOc1ccc(C(=O)OCC(=O)c2c(N)n(C)c(=O)n(C)c2=O)cc1OCC | – | 3.66 µM [rising, single point] | 6.51 µM [rising, partial curve, poor fit]
15 | CCN(CC)S(=O)(=O)c1cc(C(=O)Nc2nncs2)c(Cl)cc1Cl | 9.64% | – | –
16 | COc1ccc(/C=N\NC(=O)C2COc3ccccc3O2)cc1O (configuration not stated) | 0.819% | – | 2.91 µM [rising, full curve, poor fit]
17 | CN(C)c1ccc(C(=S)NCc2ccco2)cc1 | – | – | 0.411 µM [rising, partial curve, poor fit]
18 | CC(=O)N1CCc2ccc(S(=O)(=O)N3CC(C)OC(C)C3)cc21 (configuration not stated) | -30.3% | 2.91 µM [rising, single point] | –
19 | CC(C)CNC(=O)CSc1nc(-c2cccs2)cc(C(F)(F)F)n1 | -21.6% | – | –
20 | COc1ccc(/C=C/C(=O)NCCOc2ccccc2OC)cc1 | – | – | 2.06 µM [rising, single point]

Row | Compound | cell number change | AC50 [1] | AC50 [2]
21 | CC1(C)Cc2c(sc(NC(=O)c3ccc(Br)o3)c2C#N)CO1 | 15.2% | – | 10.3 µM [rising, partial curve, poor fit]
22 | Cc1cccc(C)c1NC(=O)CNC(=O)c1ccccc1 | -6.67% | – | –
23 | CC(=O)Nc1ccc(NC(=S)NC(=O)c2oc3ccccc3c2C)cc1 | -18.3% | – | –
24 | CCC(OC(=O)c1ccco1)C(=O)NCc1ccc(C)cc1 (configuration not stated) | -3.84% | – | 16.4 µM [rising, single point]
25 | Cc1ccc(CN=Cc2[nH]c3ccc(Br)c(Cl)c3c2O)cc1 | 41.6% | – | 29.1 µM [rising, single point]
26 | CC(Sc1nnc(C2CC2)n1C1CC1)C(=O)N(C)Cc1cccc(F)c1 (configuration not stated) | -16.4% | – | 6.51 µM [falling, single point]
27 | Cc1cc(C)c(OC2(c3ccccc3)OC(=O)c3ccccc32)c(C)c1 (configuration not stated) | -12.9% | 0.116 µM [rising, full curve, poor fit] | –
28 | O=C(CCS(=O)(=O)Cc1ccccc1)NCc1ccco1 | -44.9% | 3.66 µM [falling, full curve] | 3.66 µM [falling, full curve]
29 | Cn1cnnc1SCCOc1ccc(Cl)cc1 | 33.8% | 0.103 µM [rising, full curve, poor fit] | 18.4 µM [rising, single point]
30 | CCCCn1c(SCC(=O)Nc2ccc3c(c2)OCO3)nc2c1c(=O)n(C)c(=O)n2C | -32% | 1.84 µM [falling, full curve, poor fit] | 16.4 µM [falling, partial curve]
31 | Cc1ccc(C(=O)N2CCN(S(=O)(=O)N3CCCCCC3)CC2)cc1 | 21% | – | –
32 | O=C(NCc1ccccc1)c1cccc(F)c1F | 168% | – | –
33 | CC(C)c1ccc(N(C(=O)c2ccco2)C(C(=O)NC2CCCC2)c2cccnc2)cc1 (configuration not stated) | -9.52% | – | –
34 | CC1CCN(c2[nH]c(=S)c(C#N)c3c2CCCC3)CC1 | -14% | – | –
35 | COc1ccc(CNC(=O)CCS(=O)(=O)c2cc3c(cc2Cl)NC(=O)CO3)cc1 | -11.7% | – | 4.11 µM [falling, single point]
36 | Cc1ccc(NC(=O)CCNC(=O)c2ccccc2Cl)nc1 | 21.8% | – | 23.1 µM [rising, single point]
37 | CC(=O)c1ccc(NC(=O)CN2CCC(C(=O)c3ccc(F)cc3)CC2)cc1 | 21.8% | – | 29.1 µM [rising, single point]
38 | Cn1nc(-c2ccc(C(=O)N3CCN(CCO)CC3)cc2)c2ccccc2c1=O | – | – | 6.51 µM [falling, partial curve, poor fit]
39 | CCN(CC(=O)NCc1cccs1)C(=O)CCCOc1ccc(C(C)(C)C)cc1 | -30.9% | 29.1 µM [falling, single point] | –
40 | O=C(NCc1ccc(F)cc1)c1cccc(S(=O)(=O)N2CCOCC2)c1 | -0.648% | – | 0.00461 µM [falling, full curve, poor fit]

Filtered by structure, those above containing bromine.
Row | Compound | cell number change | AC50 [1] | AC50 [2]
21 | CC1(C)Cc2c(sc(NC(=O)c3ccc(Br)o3)c2C#N)CO1 | 15.2% | – | 10.3 µM [rising, partial curve, poor fit]
25 | Cc1ccc(CN=Cc2[nH]c3ccc(Br)c(Cl)c3c2O)cc1 | 41.6% | – | 29.1 µM [rising, single point]

More entries follow:

Row | Compound | cell number change | AC50 [1] | AC50 [2]
41 | O=C(NC1CCCC1)C(c1ccncc1)N(C(=O)Cc1cccs1)c1ccc(F)cc1 (configuration not stated) | – | – | 2.06 µM [falling, partial curve]
42 | COc1cc(C)ccc1OCc1cc(C(=O)N(Cc2c(C)nn(C)c2C)C2CC2)no1 | 3.05% | – | –
43 | CC(=O)OCC1OC(Nc2cccc(C)c2)C(OC(C)=O)C(OC(C)=O)C1OC(C)=O (configuration not stated) | 8.82% | 6.51 µM [falling, single point] | 6.51 µM [falling, single point]
44 | CC(C)c1ccc(N(C(=O)c2csnn2)C(C(=O)NC(C)(C)C)c2cccnc2)cc1 (configuration not stated) | -133% | 29.1 µM [falling, single point] | 29.1 µM [falling, partial curve]
45 | Cc1nc(-c2ccccn2)nc(SCC(=O)c2ccccc2)c1Cl | 46.3% | 1.16 µM [rising, full curve, poor fit] | 6.51 µM [rising, single point]
46 | CCOc1ncccc1C(=O)OCC(=O)N1CCc2ccccc21 | – | – | 4.11 µM [falling, single point]
47 | CC1(C)CC2CC(C)(CN2C(=O)C23CCC(C)(C(=O)O2)C3(C)C)C1 (configuration not stated) | -3.66% | – | 3.66 µM [rising, full curve]
48 | Cc1cccc(NC(=S)NC2CCCC2)c1C | 16.6% | – | 2.59 µM [falling, full curve, poor fit]
49 | O=c1nc(/C=C/c2ccc(O)c(O)c2)oc2ccccc12 | -12% | 0.058 µM [falling, full curve, poor fit] | 0.103 µM [falling, full curve, poor fit]
50 | COCCNC(=O)CN1CCN(C(c2ccccc2)c2ccccc2)CC1 | -54.5% | 32.6 µM [falling, single point] | –
51 | COc1ccccc1CNc1ncccn1 | -8.03% | – | –
52 | CCN(CC)C(=O)CSc1nc2sc3c(c2c(=O)n1CCOC)CCC3 | 6.74% | – | 1.84 µM [rising, partial curve]
53 | CCOCCCNC(=O)C(c1ccc(OC)cc1)N(Cc1cccs1)C(=O)CNC(C)=O (configuration not stated) | – | 5.8 µM [rising, partial curve] | 6.51 µM [rising, single point]
54 | O=C(CC12CC3CC(CC(C3)C1)C2)N1CCCC1 | -59.9% | 20.6 µM [falling, single point] | 0.82 µM [rising, partial curve, poor fit]
55 | CS(=O)(=O)c1ccc(Cl)c(NC(=O)COC(=O)c2cccc(S(=O)(=O)N3CCCC3)c2)c1 | 84.3% | 29.1 µM [rising, single point] | 29.1 µM [rising, single point]
56 | COC(=O)C1=C(C)Nc2sc(C(N)=O)c(N)c2C1c1ccncc1 (configuration not stated) | 41.1% | 29.1 µM [rising, single point] | 8.2 µM [rising, partial curve]
57 | CS(=O)(=O)c1cnc(-c2ccccc2)nc1-c1ccc(Cl)c(Cl)c1 | 118% | 29.1 µM [rising, partial curve] | 20.6 µM [rising, partial curve]
58 | COc1ccc(NC(=O)CC2C(=O)N(C)C(=S)N2Cc2cccs2)cc1 (configuration not stated) | 16.7% | 0.731 µM [rising, partial curve, poor fit] | 20.6 µM [rising, single point]
59 | CCOc1ccccc1N(C(=O)c1ccco1)C(C(=O)NC1CCCC1)c1cccs1 (configuration not stated) | -19.2% | – | –
60 | CC(C)[C@H](NC(=O)N1CCn2c1nc1ccccc12)C(=O)NCc1ccccc1Cl | -0.806% | – | 2.06 µM [rising, partial curve]
